Here are results for 26 compounds from PubChem BioAssay AID274 (DTP/NCI, 2004).

The structures appear in SMILES notation. The list is a part of this screen's results and no random one: it is rich in T/C values a quarter to a half above the control, in often repeated tests (any T/C) and in doses without a T/C. Other doses and runs of a compound stand elsewhere. T/C is the treated group as % of the vehicle group. Some doses have a count of surviving animals in place of a T/C: the source files T/C as zero there, which appears to mark a toxic dose or a test without result, not a measured value. Some doses without a T/C left all or most animals alive at the check, yet need not have been tolerated: survival well below the control is almost never listed, so the zero probably covers shortened survival too. Counts of survivors are from the toxicity check (mostly the fifth day) where no day follows; animals may have died later. Schedules are NCI's codes, taken here to give the interval after Q, in days (D) or hours (H), and the number of doses after X. Some entries were tested several times; the results are listed from low to high. For survival time, the PubChem record calls one and a half times the control and up active, and a quarter to a half above the control has no call in these data; cut-offs in other NCI protocols can differ. Some T/C values carry the count of animals alive at the toxicity check (mostly the fifth day); where none is given, no animal had died by that day. Numbered stars: 1 amine (or outer) side, 2 acyl side, 3 side chain; on linkers, the order of the positions; unused ones are H or OH. Bridge positions count the residues as written; N and C are the ends. Square brackets hold non-standard residues; d marks the D form. Peptide text beside a SMILES is read from it. I, II: the chains in the order shown. Actinocin(9to1) = Cc1c2oc3c(C)ccc(C(=O)[*:1])c3nc-2c(C(=O)[*:2])c(N)c1=O; NMeV = CN[CH](C(=O)O)C(C)C; Aze = O=C(O)[CH]1CCN1; Sar = CNCC(=O)O

This assay concerns BDF1 mice, Lewis lung carcinoma iv, survival T/C. Nature of the assay: NCI In Vivo Anticancer Drug Screen. Data for tumor model Lewis Lung Carcinoma (intravenous) in B6D2F1 (BDF1) mice. Conditions: T/C endpoint: median survival time, higher T/C = longer survival. Here is the method:
The antitumor activity of compounds was measured in mice bearing transplantable tumors. Survival or tumor size were measured and the results are expressed as the measurement made in the treated group (T) divided by the measurement made in the vehicle treated control group (C). The tumor model used in this assay is Lewis Lung Carcinoma (intravenous) in B6D2F1 (BDF1) mice

[1] abbreviates: dose: 400.0 mg/kg/injection, schedule: Q01DX009 (ip), vehicle: saline with Tween-80.
Where [2] appears, read: dose: 100.0 mg/kg/injection, schedule: Q01DX009 (ip), vehicle: Klucel (hydroxypropylcellulose) (HPC).
Setting [3] is: dose: 200.0 mg/kg/injection, schedule: Q01DX009 (ip), vehicle: Klucel (hydroxypropylcellulose) (HPC).
[4] abbreviates: dose: 100.0 mg/kg/injection, schedule: Q01DX009 (ip), vehicle: saline.
Setting [5] is: dose: 400.0 mg/kg/injection, schedule: Q01DX009 (ip), vehicle: Klucel (hydroxypropylcellulose) (HPC).
The mark [6] stands for this setting: dose: 100.0 mg/kg/injection, schedule: Q01DX009 (ip), vehicle: saline with Tween-80.
[7] abbreviates: dose: 200.0 mg/kg/injection, schedule: Q01DX009 (ip), vehicle: saline with Tween-80.
Setting [8] is: dose: 50.0 mg/kg/injection, schedule: Q01DX009 (ip), vehicle: suspension in saline.

For the compound `CC12CC(C(=O)O)C3(O)CC(C)(C1)CC(C)(C2)C3` (stereo not drawn) (tested in a mixture with another compound), under setting [1], the survivor count was 0 of 10.
As to `CC/C(=C(/CC)c1ccc(O)cc1)c1ccc(O)cc1`, the survivor count (dose: 400.0 mg/kg/injection, schedule: Q01DX009 (ip), vehicle: water) was 10 of 10.
Regarding `Cc1ccc2c(c1)C(=O)N(CC[P+](c1ccccc1)(c1ccccc1)c1ccccc1)C2=O`, for the setting “dose: 25.0 mg/kg/injection, schedule: Q09DX009 (ip), vehicle: water”, the survivor count was 3 of 10.
For `O=C1C=C(C2OC(CO)C(O)C2O)C(=O)N1` (stereo not drawn), the survivor count reads like this: (dose: 0.13 mg/kg/injection, schedule: Q01DX009 (ip), vehicle: saline) 10 of 10; (dose: 0.25 mg/kg/injection, schedule: Q01DX009 (ip), vehicle: saline) 10 of 10; (dose: 0.5 mg/kg/injection, schedule: Q01DX009 (ip), vehicle: saline) 10 of 10.
In the case of `COc1cc(C(=O)c2cocc2C(=O)c2ccc3c(c2)OCO3)cc(OC)c1OC`, the survivor count runs as follows: under setting [2], 9 of 10; under setting [3], 9 of 10; (dose: 800.0 mg/kg/injection, schedule: Q01DX009 (ip), vehicle: Klucel (hydroxypropylcellulose) (HPC)) 2 of 10.
Take `O=C(C1CO1)C(Cl)(Cl)Cl` (stereo not drawn): the survivor count is, setting by setting: (dose: 50.0 mg/kg/injection, schedule: Q01DX009 (ip), vehicle: saline) 5 of 10; under setting [4], 0 of 10.
Consider `CC1=C(/C=C/C(C)=C/C=C/C(C)=C/C=O)C(C)(C)CCC1`, for which the survivor count by setting is: (dose: 32.0 mg/kg/injection, schedule: Q01DX005 (ip), vehicle: saline with Tween-80) 10 of 10; (dose: 128.0 mg/kg/injection, schedule: Q01DX005 (ip), vehicle: saline with Tween-80) 1 of 11 and 10 of 10.
For the compound `CC(C)(C)C1CCCCC1`, the survivor count under setting [5] is 9 of 10.
As to `Cc1ccc(C2NC(=O)c3ccccc3N2)s1` (stereo not drawn), the survivor count runs as follows: (dose: 25.0 mg/kg/injection, schedule: Q01DX009 (ip), vehicle: Klucel (hydroxypropylcellulose) (HPC)) 10 of 10; (dose: 50.0 mg/kg/injection, schedule: Q01DX009 (ip), vehicle: Klucel (hydroxypropylcellulose) (HPC)) 10 of 10; under setting [2], 10 of 10; under setting [3], 10 of 10; under setting [5], 10 of 10.
As to `Nc1nc([Se])c2ncn(C3OC(CO)C(O)C3O)c2n1` (stereo not drawn), the survivor count runs as follows: (dose: 16.0 mg/kg/injection, schedule: Q01DX009 (ip), vehicle: saline) 10 of 10; (dose: 32.0 mg/kg/injection, schedule: Q01DX009 (ip), vehicle: saline) 10 of 10; (dose: 64.0 mg/kg/injection, schedule: Q01DX009 (ip), vehicle: saline) 8 of 10.
In the case of `COP12(OCCO1)SC(C(F)(F)F)=C(C(F)(F)F)S2`, the survivor count is recorded as 6 of 10 under setting [6] and 0 of 10 under setting [7].
For `CCCCCCCCCCCCN1C(C)=CS/C1=C\C=C\c1scc(C)[n+]1CCCCCCCCCCCC`, the survivor count (dose: 6.25 mg/kg/injection, schedule: Q01DX009 (ip), vehicle: saline with Tween-80) is 10 of 10; the survivor count (dose: 12.5 mg/kg/injection, schedule: Q01DX009 (ip), vehicle: saline with Tween-80) is recorded as 10 of 10; the survivor count (dose: 25.0 mg/kg/injection, schedule: Q01DX009 (ip), vehicle: saline with Tween-80) is 2 of 10.
As to `COc1ccc(-c2csc(=[N+]3CCCCC3)s2)cc1`, the survivor count (dose: 50.0 mg/kg/injection, schedule: Q01DX009 (ip), vehicle: water) is reported as 0 of 10.
As for `C[CH2][Ge]([CH2]C)[CH2]C.C[CH2][Ge]([CH2]C)[CH2]C.C[CH2][Ge]([CH2]C)[O][Ge]([CH2]C)[CH2]C`, the survivor count is, setting by setting: under setting [6], 10 of 10; under setting [7], 2 of 10.
As to `COC(=O)C(F)C(Br)C(=O)OC` (stereo not drawn), under setting [6], the survivor count is recorded as 1 of 10.
`O=c1n(CC2CO2)c(=O)n(CC2CO2)c(=O)n1CC1CO1` (stereo not drawn): the T/C under setting [8] was 129 % of control. Besides, the survivor count by setting is: under setting [8], 7 of 10; (dose: 100.0 mg/kg/injection, schedule: Q01DX009 (ip), vehicle: suspension in saline) 3 of 10 and 8 of 10; (dose: 200.0 mg/kg/injection, schedule: Q01DX009 (ip), vehicle: suspension in saline) 0 of 10 and 4 of 10.
`O=C(Nc1ccc(Cl)c(Cl)c1)Nc1c(Oc2ccc(Cl)c(Cl)c2)ccc(Cl)c1S(=O)(=O)O`: the T/C (dose: 12.5 mg/kg/injection, schedule: Q01DX009 (ip), vehicle: Klucel (hydroxypropylcellulose) (HPC)) was 131 % of control.
`CC(C)n1cnc2c(Cl)ncnc21`: the T/C under setting [6] was 130 % of control.
On to `Cc1oc2c(C)c3oc(=O)cc(C)c3cc2c1CCl`, for which the survivor count is 10 of 10 under setting [6], 1 of 10 under setting [7] and 1 of 10 under setting [1].
For `O=NN(CCCl)C(=O)NC1CCCCC1`, the T/C (dose: 12.0 mg/kg/injection, schedule: Q01DX001 (ip), vehicle: saline + alcohol) was 103, 103 [7 of 8 alive], 111, 237 % of control; the T/C (dose: 18.0 mg/kg/injection, schedule: Q01DX001 (ip), vehicle: saline + alcohol) is reported as 101, 103, 121, 166 % of control; the T/C (dose: 27.0 mg/kg/injection, schedule: Q01DX001 (ip), vehicle: saline + alcohol) is reported as 109, 118, 125, 197 % of control; the T/C (dose: 40.0 mg/kg/injection, schedule: Q01DX001 (ip), vehicle: saline + alcohol) was 115, 116, 131, 236 % of control; the T/C (dose: 60.0 mg/kg/injection, schedule: Q01DX001 (ip), vehicle: saline + alcohol) is listed as 102, 113, 126, 131 % of control.
`CCc1cc(C(N)=S)ccn1`: the survivor count (dose: 210.0 mg/kg/injection, schedule: Q01DX007 (ip), vehicle: Klucel (hydroxypropylcellulose) (HPC)) is 10 of 10.
Regarding `O=C1C=CC(n2cc(F)c(=O)[nH]c2=O)O1` (stereo not drawn), the survivor count under setting [4] is 8 of 10.
As for `Cc1c2oc3c(C)ccc(C(=O)NC4C(=O)NC(C(C)C)C(=O)N5CCC5C(=O)N(C)CC(=O)N(C)C(C(C)C)C(=O)OC4C)c3nc-2c(C(=O)NC2C(=O)NC(C(C)C)C(=O)N3CCC3C(=O)N(C)CC(=O)N(C)C(C(C)C)C(=O)OC2C)c(N)c1=O` (stereo not drawn) (I: TV[Aze][Sar][NMeV] / II: TV[Aze][Sar][NMeV]; ester I:1-I:C, II:1-II:C; linker I:N-II:N via Actinocin(9to1); configuration not given here), the survivor count (dose: 900.0 micrograms/kg/injection, schedule: Q04DX003 (ip), vehicle: saline + alcohol) is recorded as 8 of 8; the survivor count (dose: 1250.0 micrograms/kg/injection, schedule: Q04DX003 (ip), vehicle: saline + alcohol) is 7 of 8; the survivor count (dose: 1500.0 micrograms/kg/injection, schedule: Q04DX003 (ip), vehicle: saline + alcohol) is given as 8 of 8; the survivor count (dose: 1800.0 micrograms/kg/injection, schedule: Q01DX001 (ip), vehicle: saline + alcohol) is 6 of 8; the survivor count (dose: 3000.0 micrograms/kg/injection, schedule: Q01DX001 (ip), vehicle: saline + alcohol) is given as 0 of 8.
On to `COc1cccc2c1C(=O)c1c(O)c3c(c(O)c1C2=O)C[C@@](O)(C(=O)CO)C[C@@H]3OC1CC(N)CC(C)O1` (stereo partly drawn), for which, for the setting “dose: 0.75 mg/kg/injection, schedule: Q01DX009 (ip), vehicle: water”, the T/C is 130 % of control. Also, the survivor count is 10 of 10 (dose: 1.5 mg/kg/injection, schedule: Q01DX009 (ip), vehicle: water); 10 of 10 (dose: 3.0 mg/kg/injection, schedule: Q01DX009 (ip), vehicle: water); 7 of 10 (dose: 6.0 mg/kg/injection, schedule: Q01DX009 (ip), vehicle: water).
In the case of `O=[N+]([O-])c1ccc(-n2[nH]nnc2=S)cc1`, under setting [1], the survivor count was 4 of 10.
In the case of `C/C=C/C1=CC(=O)C(O)C1O` (stereo not drawn), the survivor count (dose: 200.0 mg/kg/injection, schedule: Q01DX009 (ip), vehicle: water) is 6 of 10.
